This passage reports crude yield results from patent publication US4161522A (The Regents of the University of California, priority 1978, dated 1979).

The nature of this data set: Boc solid-phase peptide synthesis; dicyclohexylcarbodiimide. The following applies: whole synthesis, based upon the arginine.

HELM strings list residues between dots; [ac] is acetyl, [am] amide, other brackets name non-standard units.

As to PEPTIDE1{D.S.D.P.R}$$$$V2.0, the crude yield was 16%.
